# Results of single-concentration screens

The chains behind the UniProt entries cited, without tags or fusion partners. Residues count along the entry.
UniProt Q8IDJ8, 1-583: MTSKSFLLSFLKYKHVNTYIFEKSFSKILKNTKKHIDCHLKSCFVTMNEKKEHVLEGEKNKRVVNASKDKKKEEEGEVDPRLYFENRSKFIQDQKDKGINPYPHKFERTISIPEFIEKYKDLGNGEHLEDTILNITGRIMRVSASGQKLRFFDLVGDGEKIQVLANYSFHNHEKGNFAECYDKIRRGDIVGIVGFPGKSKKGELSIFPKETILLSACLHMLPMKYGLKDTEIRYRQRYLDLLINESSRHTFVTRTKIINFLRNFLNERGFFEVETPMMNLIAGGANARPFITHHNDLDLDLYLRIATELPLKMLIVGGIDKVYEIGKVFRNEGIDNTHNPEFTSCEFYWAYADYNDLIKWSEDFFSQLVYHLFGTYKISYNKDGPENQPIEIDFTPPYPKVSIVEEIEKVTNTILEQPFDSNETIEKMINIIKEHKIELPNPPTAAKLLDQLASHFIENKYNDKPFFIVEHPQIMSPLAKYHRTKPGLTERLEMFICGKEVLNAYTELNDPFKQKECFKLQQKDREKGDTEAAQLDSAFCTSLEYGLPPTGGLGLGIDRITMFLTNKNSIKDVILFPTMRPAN
UniProt P9WFT3, whole entry: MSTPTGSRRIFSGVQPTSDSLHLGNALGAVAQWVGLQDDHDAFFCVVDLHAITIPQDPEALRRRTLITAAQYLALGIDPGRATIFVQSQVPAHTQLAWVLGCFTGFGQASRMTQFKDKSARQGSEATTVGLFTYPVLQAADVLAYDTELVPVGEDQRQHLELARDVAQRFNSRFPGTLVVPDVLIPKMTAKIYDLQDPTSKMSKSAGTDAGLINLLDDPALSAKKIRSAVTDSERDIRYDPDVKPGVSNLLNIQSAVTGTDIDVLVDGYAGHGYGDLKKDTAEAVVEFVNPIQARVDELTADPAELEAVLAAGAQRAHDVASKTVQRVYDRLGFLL

Source: ChEMBL document CHEMBL3988442, “University of Dundee, Small-Polar-MMV Screening Library” (2021).

Values are the deposited “Percent Effect”, in %. The controls that fix the scale are not given in the record; negative values are as filed. Compounds were drawn at random from those tested, without regard to their results. A dash means the value is not listed here; it may have been measured.

A: 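Enzyme assay of the cytosolic lysyl-tRNA synthetase in 384-well plates, read by luminescence. Target: Lysine-tRNA ligase, Plasmodium falciparum 3D7 (UniProt Q8IDJ8). Concentration: 30 µM. Direction is inferred from only a few compounds that gave an IC50; most scored high, so higher reads as stronger inhibition. Size under these conditions: about 69,000 compounds, about 49 of them at 50% or above in at least one test.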
B: 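Tryptophan-tRNA ligase, Mycobacterium tuberculosis (UniProt P9WFT3). Enzyme assay of tryptophanyl-tRNA synthetase; the read-out is not stated. Compounds at 10 µM. Higher most likely means stronger inhibition; the record gives no direction and few retests gave an IC50. About 65,000 compounds were tested under these conditions; 0.098% (about 64) showed 50% or more at least once.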

Compound	A	B
c1cc(C2CCN(Cc3nc(-c4ccsc4)no3)CC2)[nH]n1	0.3269	-0.8614
Cc1cccc(CS(=O)(=O)CC(O)Cn2cccn2)c1 (stereo not drawn)	2.339	-0.722
O=S(=O)(C1CC1)N1CCCn2cnc(COc3cccnc3)c2C1	2.525	-
CCCc1cc(NCCN2CCNC2=O)n2nccc2n1	2.095	-2.196
CC(C)N1CCCC1c1nc(N(C)C)ncc1I (stereo not drawn)	-1.409	-1.339
COc1ccccc1CC(=O)NCCCN1CCCC1C(=O)N(C)C (stereo not drawn)	1.124	1.354
O=C(NC1CC1)[C@@]12CCO[C@@H]1CCN(Cc1ccc3c(c1)OCO3)C2	2.187	-
Cc1nc(N)sc1C(=O)N1CCCC(c2nccn2CCCN(C)C)C1 (stereo not drawn)	0.6661	0.4177
Cc1ccc(N2CCCC3(COCCN(c4ncccn4)C3)C2)nn1 (stereo not drawn)	4.211	3.357
Cc1cnn(CC2CN(CC(=O)Nc3cc(C)on3)CCO2)c1 (stereo not drawn)	1.654	2.808
O=c1[nH]cccc1-c1nccc(C2(c3ccccc3Cl)CCNCC2)n1	-2.011	-1.485
C[C@@H]1CN(C(=O)CCc2cnn(C)c2)CC[C@@]1(O)C1CCOCC1	0.4475	3.866
CCOCc1nc(-c2cccc(OC)c2OC)n(C2CCN(C)CC2)n1	1.514	-2.662
c1cc(CN2C[C@@H]3OCCN(CC4CCCO4)[C@@H]3C2)ccn1 (stereo partly drawn)	5.055	1.604
NCc1cccc(-c2cccnc2C(=O)NCCN2CCCC2)c1	1.663	0.3903
COc1ccc(CN2CCN(c3nccnc3OC)CC2=O)cc1	9.835	0.8835
Oc1ccccc1CN1CCCCCC1c1cccs1 (stereo not drawn)	0.5001	3.375
Cc1cc(F)cc(S(=O)(=O)NCCCN2CCC(O)CC2)c1	-2.232	-1.574
CCCc1noc(CCC(=O)N2CCCC(n3ccnc3C)C2)n1 (stereo not drawn)	7.568	-6.561
COc1ccc(O[C@H]2COCCN(C(=O)c3ccno3)C2)cc1	4.767	2.959
Cc1ccccc1CN1CCCN(C2CCOC2=O)CC1 (stereo not drawn)	-1.276	1.33
CC(Oc1ccccc1C(F)(F)F)C(=O)NCC(=O)N1CCCC1 (stereo not drawn)	4.613	-2.584
COCCC1(C(=O)O)CCCN(C(=O)c2cc(F)ccc2OC)C1 (stereo not drawn)	3.574	3.166
O=C(c1cccc(S(=O)(=O)NCCc2ccccn2)c1)N1CCOCC1	5.92	1.522
Oc1cc(-c2ccsc2)nc(C2CCN(Cc3ccncc3)CC2)n1	0.9871	-5.789
CCc1nnc(C2Cc3ccccc3CN2Cc2ncc(Cl)n2C)o1 (stereo not drawn)	2.224	-2.58
c1ccc2c(c1)CC(n1ccnc1-c1cc3n(n1)CCCNC3)CO2 (stereo not drawn)	5.115	-2.026
CCOCC1CN(C2CCCC2)Cc2cnn(CC3CCOCC3)c21 (stereo not drawn)	1.381	1.652
Cc1occc1C(=O)N1C[C@@H](C(=O)N2CCCCO2)C[C@H]2OCC[C@H]21	5.404	0.6509
CC(NC(=O)COc1cccc[n+]1[O-])C1CC1 (stereo not drawn)	-0.6876	-0.8922
COc1cccc2cc(CNC(=O)N3CCC(C(N)=O)CC3)oc12	0.3683	-4.241
COC(=O)NCCC(=O)NC(C)Cc1cccc(Br)c1 (stereo not drawn)	-0.8121	2.574
Cc1noc(-c2cccnc2N(C)Cc2cscn2)n1	5.147	-1.574
CCCOCC(=O)N1CCCN(Cc2csc(CC)n2)CC1	-1.404	1.319
Cc1[nH]ccc1C(=O)N(C)C1CC(=O)N(Cc2ccccc2)C1=O (stereo not drawn)	-0.8889	-7.637
N#Cc1cccnc1N1CCC(c2nc(C(F)(F)F)c[nH]2)CC1	1.7	2.207
CCc1cc(-c2ccnc3c2ccn3C)nc(N2CCOCC2)n1	-2.219	-0.000006
CC(=O)N1CCCC2(CCN(C(=O)c3nccnc3N)CC2)C1	3.166	0.7276
COc1cccc(OCCNC(=O)CN2CCN(C)CC2C)c1 (stereo not drawn)	3.313	1.652
O=C(c1ccc[nH]1)N1CCOC2(COCCN(c3cncnc3)C2)C1 (stereo not drawn)	-1.711	-2.705
CCN1CCc2onc(CNc3ncccn3)c2C1	-0.04993	9.237
Cc1ncc(-c2nc3cc(S(=O)(=O)N4CCCC4)ccc3n2C)cn1	3.93	0.6415
CC(C)NC(=O)Nc1ccc(CNCc2cccc(OC(F)F)c2)cc1	-12.67	-4.035
CCC(=O)N1CCC2(CC1)CC(Oc1ccccc1)CO2 (stereo not drawn)	8.867	1.602
CCCc1nc(C[S+]([O-])Cc2cn3cccc(C)c3n2)no1 (stereo not drawn)	8.614	2.659
Cc1nc(-c2ccccc2C)n(CC(=O)NC2CCCC2)n1	0.7208	15.19
O=C(CC(F)(F)F)Nc1cc(F)ccc1OCC1CCCO1 (stereo not drawn)	-0.982	-5.946
O=S(=O)(N1CCOCC1)N1CCc2sccc2C1	-0.9476	1.079
CC(C)c1nccn1C1CCCN(C(=O)c2ccc3c(c2)COC3)C1 (stereo not drawn)	21.53	-2.522
CCCc1cc(C(=O)N(C)Cc2cnc3ccccc3n2)n(C)n1	0.9411	-2.403
O=C(Cc1c(F)cccc1Cl)Nc1cc(N2CCOCC2)ncn1	6.087	-1.877
CCN1CCN(c2ccc(F)cc2C(C)NCc2noc(C)n2)CC1 (stereo not drawn)	-2.857	-0.3353
Cc1nc(C2CCCN(C(=O)c3cccc(S(C)(=O)=O)c3)C2)no1 (stereo not drawn)	2.323	0.8772
Cc1cccc(CN2CCN(C(=O)N(C)C)[C@@H]3CS(=O)(=O)C[C@@H]32)n1	3.02	0.9721
CCCNC(=O)Cn1cc(C#N)c(=O)c2cc(Br)ccc21	2.548	2.342
CCCc1cc(C(=O)N2C[C@@H](C)[C@](O)(C3CCC3)C2)[nH]n1	-3.993	8.221
CN(C)c1nc2c(c(=O)[nH]1)CCN(C(=O)c1cccc3nccnc13)C2	-3.48	5.22
CCN(C)S(=O)(=O)N1CCC(C(O)c2ccc(Cl)cc2)CC1 (stereo not drawn)	5.877	0.5747
COc1ccc2c(c1)OCC(C(=O)NCc1ncc3c(n1)CCC3)C2 (stereo not drawn)	-0.3471	3.493
Cc1nc(C2CCCN(C(=O)C3=NN(C(C)C)C(=O)CC3)C2)no1 (stereo not drawn)	0.3717	-0.7947
CNC(=O)c1ccnc(CC2COc3c(cccc3OC)C2)c1 (stereo not drawn)	-1.387	3.366
Cc1ccc(C)n1-c1c(C(=O)NCC(c2ccsc2)N(C)C)cnn1C (stereo not drawn)	5.754	8.657
CN(Cc1nnc2n1CCC2)C(=O)c1ccc2c(c1)OCO2	0.614	-1.836

Once more, the final 7:

| Compound | A | B |
|---|---|---|
| `CN(C)c1nc2c(c(=O)[nH]1)CCN(C(=O)c1cccc3nccnc13)C2` | -3.48 | 5.22 |
| `CCN(C)S(=O)(=O)N1CCC(C(O)c2ccc(Cl)cc2)CC1` (stereo not drawn) | 5.877 | 0.5747 |
| `COc1ccc2c(c1)OCC(C(=O)NCc1ncc3c(n1)CCC3)C2` (stereo not drawn) | -0.3471 | 3.493 |
| `Cc1nc(C2CCCN(C(=O)C3=NN(C(C)C)C(=O)CC3)C2)no1` (stereo not drawn) | 0.3717 | -0.7947 |
| `CNC(=O)c1ccnc(CC2COc3c(cccc3OC)C2)c1` (stereo not drawn) | -1.387 | 3.366 |
| `Cc1ccc(C)n1-c1c(C(=O)NCC(c2ccsc2)N(C)C)cnn1C` (stereo not drawn) | 5.754 | 8.657 |
| `CN(Cc1nnc2n1CCC2)C(=O)c1ccc2c(c1)OCO2` | 0.614 | -1.836 |